From the supplement of paper PMC12823440, “Inhibitors supercharge kinase turnover through native proteolytic circuits” (Nature, 2025)
Structures can show the parent of a compound that is named as a salt. The list shows a part of the results. Hit calls seldom repeat between salt and free forms of one compound.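 Kinases, fused to nanoluciferase, were expressed in K562 cells; luminescence was measured every 4 h from 2 to 18 h as percent of control (DMSO = 100%, positive control = 0%). A time point is decreased if signal falls significantly (2 sigma). Hits were called by the authors by a rule that is not shown; the count of time points alone does not decide it.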

The chains behind the UniProt entries cited, without tags or fusion partners. Where a name states a change or a piece, a line headed by the entry shows the natural chain unless it says otherwise.
UniProt P29317, whole entry: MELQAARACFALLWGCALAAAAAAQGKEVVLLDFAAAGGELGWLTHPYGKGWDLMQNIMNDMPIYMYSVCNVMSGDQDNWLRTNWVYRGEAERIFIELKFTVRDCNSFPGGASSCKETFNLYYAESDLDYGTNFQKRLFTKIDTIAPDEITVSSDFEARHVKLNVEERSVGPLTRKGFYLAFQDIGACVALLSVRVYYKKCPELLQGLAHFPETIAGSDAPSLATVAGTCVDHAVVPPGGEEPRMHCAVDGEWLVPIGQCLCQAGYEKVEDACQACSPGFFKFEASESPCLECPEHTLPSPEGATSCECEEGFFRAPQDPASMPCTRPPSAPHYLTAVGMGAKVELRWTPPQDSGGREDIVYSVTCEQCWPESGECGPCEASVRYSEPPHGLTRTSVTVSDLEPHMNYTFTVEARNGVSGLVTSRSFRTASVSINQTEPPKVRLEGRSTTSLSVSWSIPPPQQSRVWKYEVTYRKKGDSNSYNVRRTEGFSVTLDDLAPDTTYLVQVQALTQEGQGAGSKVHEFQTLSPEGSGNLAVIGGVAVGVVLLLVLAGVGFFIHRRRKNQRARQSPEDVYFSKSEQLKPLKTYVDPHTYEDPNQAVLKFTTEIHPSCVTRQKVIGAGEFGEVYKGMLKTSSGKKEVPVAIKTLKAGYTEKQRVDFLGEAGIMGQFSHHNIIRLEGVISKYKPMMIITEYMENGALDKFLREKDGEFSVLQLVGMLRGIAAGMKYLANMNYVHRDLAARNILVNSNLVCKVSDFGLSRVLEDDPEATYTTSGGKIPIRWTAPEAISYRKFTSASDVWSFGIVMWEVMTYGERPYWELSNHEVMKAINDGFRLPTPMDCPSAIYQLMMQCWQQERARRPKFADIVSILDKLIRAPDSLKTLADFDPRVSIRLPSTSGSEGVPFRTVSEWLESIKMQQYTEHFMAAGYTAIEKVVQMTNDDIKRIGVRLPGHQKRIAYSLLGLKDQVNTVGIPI
UniProt P21860, whole entry: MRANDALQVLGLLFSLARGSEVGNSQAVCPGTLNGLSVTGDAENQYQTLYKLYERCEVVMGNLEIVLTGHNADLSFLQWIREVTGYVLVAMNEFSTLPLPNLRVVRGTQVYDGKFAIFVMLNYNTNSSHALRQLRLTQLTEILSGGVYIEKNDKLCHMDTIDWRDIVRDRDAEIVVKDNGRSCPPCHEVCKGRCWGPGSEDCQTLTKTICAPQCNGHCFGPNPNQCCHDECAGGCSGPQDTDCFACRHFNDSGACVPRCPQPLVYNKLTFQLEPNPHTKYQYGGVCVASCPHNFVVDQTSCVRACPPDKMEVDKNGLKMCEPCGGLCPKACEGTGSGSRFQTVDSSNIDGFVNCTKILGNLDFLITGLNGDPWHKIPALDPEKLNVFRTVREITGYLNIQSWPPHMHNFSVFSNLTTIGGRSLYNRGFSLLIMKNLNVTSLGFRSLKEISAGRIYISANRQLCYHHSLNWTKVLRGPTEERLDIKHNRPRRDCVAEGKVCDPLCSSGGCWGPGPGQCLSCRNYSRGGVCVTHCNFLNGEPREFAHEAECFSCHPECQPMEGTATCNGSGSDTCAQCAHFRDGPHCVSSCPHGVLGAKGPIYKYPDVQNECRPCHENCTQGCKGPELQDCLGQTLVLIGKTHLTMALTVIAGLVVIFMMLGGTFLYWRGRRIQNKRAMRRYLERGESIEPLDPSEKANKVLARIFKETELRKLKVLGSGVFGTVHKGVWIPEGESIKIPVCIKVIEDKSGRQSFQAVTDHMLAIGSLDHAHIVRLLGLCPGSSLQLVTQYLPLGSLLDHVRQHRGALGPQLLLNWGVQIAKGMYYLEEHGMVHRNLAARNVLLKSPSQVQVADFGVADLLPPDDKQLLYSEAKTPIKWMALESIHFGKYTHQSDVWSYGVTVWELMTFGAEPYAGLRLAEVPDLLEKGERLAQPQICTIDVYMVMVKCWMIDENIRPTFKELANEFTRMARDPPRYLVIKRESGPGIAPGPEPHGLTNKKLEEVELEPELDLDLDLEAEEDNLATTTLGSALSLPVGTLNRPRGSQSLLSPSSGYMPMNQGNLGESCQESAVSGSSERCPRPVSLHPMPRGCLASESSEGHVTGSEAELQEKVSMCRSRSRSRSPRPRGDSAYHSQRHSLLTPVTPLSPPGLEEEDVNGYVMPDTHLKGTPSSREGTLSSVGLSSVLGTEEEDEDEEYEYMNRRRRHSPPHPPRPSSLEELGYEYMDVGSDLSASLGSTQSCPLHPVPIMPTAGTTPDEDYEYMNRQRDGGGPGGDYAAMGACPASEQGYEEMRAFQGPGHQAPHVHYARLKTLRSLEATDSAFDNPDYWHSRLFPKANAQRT
UniProt O75460: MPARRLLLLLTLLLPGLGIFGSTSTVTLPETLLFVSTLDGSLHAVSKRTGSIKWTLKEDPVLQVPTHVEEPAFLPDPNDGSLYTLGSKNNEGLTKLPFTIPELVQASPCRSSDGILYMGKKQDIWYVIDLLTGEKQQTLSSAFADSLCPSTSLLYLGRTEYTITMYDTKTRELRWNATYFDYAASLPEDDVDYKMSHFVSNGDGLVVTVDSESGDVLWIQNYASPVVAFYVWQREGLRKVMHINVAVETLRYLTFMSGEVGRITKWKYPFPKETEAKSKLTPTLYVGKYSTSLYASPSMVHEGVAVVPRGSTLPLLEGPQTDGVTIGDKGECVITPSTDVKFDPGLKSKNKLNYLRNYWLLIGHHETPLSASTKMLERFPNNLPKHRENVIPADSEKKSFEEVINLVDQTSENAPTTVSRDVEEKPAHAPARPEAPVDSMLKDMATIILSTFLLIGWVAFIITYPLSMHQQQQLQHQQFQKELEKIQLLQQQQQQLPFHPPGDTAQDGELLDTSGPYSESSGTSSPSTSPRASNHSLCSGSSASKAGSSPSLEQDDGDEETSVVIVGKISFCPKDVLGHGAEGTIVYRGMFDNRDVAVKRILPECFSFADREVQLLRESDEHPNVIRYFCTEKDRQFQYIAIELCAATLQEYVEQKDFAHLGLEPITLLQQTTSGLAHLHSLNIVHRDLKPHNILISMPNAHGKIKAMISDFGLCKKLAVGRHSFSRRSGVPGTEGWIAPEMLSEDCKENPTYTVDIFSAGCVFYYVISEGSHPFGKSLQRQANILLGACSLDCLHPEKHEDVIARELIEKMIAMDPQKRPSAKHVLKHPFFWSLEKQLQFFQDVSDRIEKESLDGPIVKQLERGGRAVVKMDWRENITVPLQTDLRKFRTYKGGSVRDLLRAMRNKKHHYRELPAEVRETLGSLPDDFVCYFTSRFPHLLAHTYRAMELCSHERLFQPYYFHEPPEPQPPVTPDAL
UniProt P11362, whole entry, looked up: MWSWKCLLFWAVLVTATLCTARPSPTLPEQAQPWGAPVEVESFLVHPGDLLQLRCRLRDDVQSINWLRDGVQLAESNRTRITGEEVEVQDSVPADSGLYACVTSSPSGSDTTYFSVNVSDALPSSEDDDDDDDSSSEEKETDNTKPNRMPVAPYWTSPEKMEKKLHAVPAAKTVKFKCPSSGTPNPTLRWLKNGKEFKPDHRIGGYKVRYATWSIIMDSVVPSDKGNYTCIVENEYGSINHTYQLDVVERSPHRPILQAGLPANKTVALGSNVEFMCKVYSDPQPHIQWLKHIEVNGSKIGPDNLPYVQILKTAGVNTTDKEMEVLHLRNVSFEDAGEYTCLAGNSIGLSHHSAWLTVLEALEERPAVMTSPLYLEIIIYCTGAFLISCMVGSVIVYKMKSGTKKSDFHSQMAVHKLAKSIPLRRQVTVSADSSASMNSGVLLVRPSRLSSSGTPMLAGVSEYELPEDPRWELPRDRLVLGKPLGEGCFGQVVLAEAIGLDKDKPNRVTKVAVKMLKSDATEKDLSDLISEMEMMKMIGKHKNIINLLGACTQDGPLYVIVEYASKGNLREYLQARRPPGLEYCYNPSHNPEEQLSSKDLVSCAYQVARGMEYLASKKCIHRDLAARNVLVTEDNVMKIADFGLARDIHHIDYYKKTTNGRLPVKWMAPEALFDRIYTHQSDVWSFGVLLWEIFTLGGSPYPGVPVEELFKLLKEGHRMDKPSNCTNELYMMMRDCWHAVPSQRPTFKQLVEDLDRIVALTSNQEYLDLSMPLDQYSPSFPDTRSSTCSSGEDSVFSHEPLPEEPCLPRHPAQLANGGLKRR
UniProt P21802, whole entry, looked up: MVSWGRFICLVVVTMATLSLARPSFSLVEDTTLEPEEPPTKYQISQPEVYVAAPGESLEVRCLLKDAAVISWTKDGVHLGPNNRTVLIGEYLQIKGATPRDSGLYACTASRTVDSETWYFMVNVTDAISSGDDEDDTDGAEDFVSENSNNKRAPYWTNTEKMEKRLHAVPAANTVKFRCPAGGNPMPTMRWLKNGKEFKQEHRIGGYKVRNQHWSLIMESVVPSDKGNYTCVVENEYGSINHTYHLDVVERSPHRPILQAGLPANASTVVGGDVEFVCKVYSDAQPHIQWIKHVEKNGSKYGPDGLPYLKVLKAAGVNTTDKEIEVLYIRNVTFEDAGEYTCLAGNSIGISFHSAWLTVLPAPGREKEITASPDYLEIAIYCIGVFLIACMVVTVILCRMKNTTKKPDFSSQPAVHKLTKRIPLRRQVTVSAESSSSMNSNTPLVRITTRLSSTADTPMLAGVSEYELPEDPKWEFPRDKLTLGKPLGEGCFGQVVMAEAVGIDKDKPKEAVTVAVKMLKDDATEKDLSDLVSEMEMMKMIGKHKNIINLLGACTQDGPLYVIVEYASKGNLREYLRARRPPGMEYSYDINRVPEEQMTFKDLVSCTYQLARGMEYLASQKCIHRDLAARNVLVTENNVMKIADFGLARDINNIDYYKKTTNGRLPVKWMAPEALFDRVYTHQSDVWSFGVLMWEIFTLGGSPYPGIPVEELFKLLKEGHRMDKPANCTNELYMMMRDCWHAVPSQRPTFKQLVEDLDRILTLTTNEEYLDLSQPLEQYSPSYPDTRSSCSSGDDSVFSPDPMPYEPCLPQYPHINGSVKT
UniProt P22607, whole entry, looked up: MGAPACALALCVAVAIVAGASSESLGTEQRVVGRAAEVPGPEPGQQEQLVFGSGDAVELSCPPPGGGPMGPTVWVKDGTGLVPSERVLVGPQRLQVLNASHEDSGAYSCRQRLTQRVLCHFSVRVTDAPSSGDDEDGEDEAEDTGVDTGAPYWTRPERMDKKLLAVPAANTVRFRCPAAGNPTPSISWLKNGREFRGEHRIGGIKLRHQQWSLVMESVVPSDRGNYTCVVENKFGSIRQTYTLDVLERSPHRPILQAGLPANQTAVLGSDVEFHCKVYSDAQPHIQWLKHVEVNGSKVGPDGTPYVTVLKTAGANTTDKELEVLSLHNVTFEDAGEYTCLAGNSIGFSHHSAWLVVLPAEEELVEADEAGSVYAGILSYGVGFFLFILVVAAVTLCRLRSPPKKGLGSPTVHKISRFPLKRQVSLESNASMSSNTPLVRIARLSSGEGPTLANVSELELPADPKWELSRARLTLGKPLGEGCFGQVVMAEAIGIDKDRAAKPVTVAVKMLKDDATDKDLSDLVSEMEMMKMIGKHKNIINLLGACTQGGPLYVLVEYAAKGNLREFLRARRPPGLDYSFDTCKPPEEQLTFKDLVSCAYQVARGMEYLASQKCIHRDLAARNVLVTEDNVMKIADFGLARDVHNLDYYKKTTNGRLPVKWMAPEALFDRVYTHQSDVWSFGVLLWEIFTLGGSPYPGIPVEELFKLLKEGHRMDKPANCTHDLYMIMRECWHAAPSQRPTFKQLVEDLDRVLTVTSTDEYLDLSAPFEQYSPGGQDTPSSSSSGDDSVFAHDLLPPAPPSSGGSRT

What was measured:
Experiment in all cases: number of time points (of 5) at which kinase-Nluc abundance scored as decreased, DMSO-normalised (count); higher = more persistent destabilization
Details in all cases: K562; 2-18 h
EGFR_L861Q = EGFR_L861Q (UniProt P00533)
EGFR_T790M = EGFR_T790M (UniProt P00533)
EPHA2 = EPHA2 (UniProt P29317)
ERBB3 = ERBB3 (UniProt P21860)
[1] = target: ERBB4_R711C (clone: ERBB4_mut) (UniProt Q15303)
ERN1 = ERN1 (UniProt O75460)
FGFR1 = FGFR1 (UniProt P11362)
FGFR2 = FGFR2 (UniProt P21802)
FGFR3 = FGFR3 (UniProt P22607)
FGR = FGR (UniProt P09769)

Measured: number of time points

O=C(N=c1sccn1Cc1ccccc1)c1c[nH]c2ncccc12 (10 µM)
0: all assays above

NC(=O)c1cccc2c(N[C@H](CN3CCC3)c3ccc(Cl)c(C(F)(F)F)c3)ncnc12 (10 µM)
0: all assays above

Cc1nc(NC(=O)N2CCC[C@H]2C(N)=O)sc1-c1csc(C(C)(C)C)n1 (10 µM)
0: all assays above

CC[C@H](C)[C@@H]1NC(=O)[C@@H]2CCCN2C(=O)[C@@H]2CCCN2C(=O)[C@@H]2CCCN2C(=O)[C@H](CC(C)C)NC(=O)CNC(=O)CNC(=O)[C@H](Cc2ccccc2)NC1=O [Heterophyllin B] (10 µM)
0: all assays above

Cn1cc(-c2ccc3nnc(Sc4ccc5nn(C)cc5c4)n3n2)cn1 [c-Met inhibitor 1] (10 µM)
0: all assays above

C[C@H](Nc1ccc2c(c1)OCCn1cc(N3C(=O)OC[C@H]3C(F)F)nc1-2)C(N)=O (10 µM)
0: all assays above

COc1cc(Nc2nc3ccccc3nc2NS(=O)(=O)c2ccc(NC(=O)c3ccc(C)c(OC)c3)cc2)cc(OC)c1 (10 µM)
0: all assays above

CN1CCC(c2ccccc2CC(C)(C)Nc2nc(N3CCOCC3)nc(-n3c(S(C)(=O)=O)nc4ccccc43)n2)CC1 (10 µM)
0: all assays above

CN(C/C=C/C(=O)Nc1ccc(C(=O)Nc2cccc(Nc3ncc(Cl)c(-c4c[nH]c5ccccc45)n3)c2)cc1)CCCNC(=O)NCCOCCOCCOCCNC(=O)CCCC[C@@H]1SC[C@@H]2NC(=O)N[C@@H]21 (2.5 µM)
2: EGFR_L861Q | [1] | FGFR2
0: FGFR1 | FGFR3 | FGR
1: all other assays above

Cc1cc([N+](=O)[O-])c(NS(=O)(=O)c2cccc(C(=O)O)c2)cc1-c1cccnc1 [Alofanib] (10 µM)
0: all assays above

CC(C)Cn1cc(C#N)c2cc(Oc3ccc(NC(=O)[C@@H]4CCCN4)cc3)ccc21 (10 µM)
0: all assays above

COc1ccc(C2CC(c3ccc(Cl)cc3)=NN2c2nc(-c3ccncc3)cs2)cc1 (stereo not given) [mTOR inhibitor-8] (10 µM)
0: all assays above

Cc1cc(=O)[nH]c(=S)[nH]1 [Methylthiouracil] (10 µM)
0: all assays above

O=C1c2c(O)cc(O)cc2O[C@H](c2cc(O)c(O)c(O)c2)[C@H]1O [Dihydromyricetin] (10 µM)
0: all assays above

CC(C)(C)S(=O)(=O)c1cc2c(Nc3ccc4scnc4c3)ccnc2cc1OCCOCCOCCOCCOCC(=O)Nc1cccc2c1CN(C1CCC(=O)NC1=O)C2=O (stereo not given) [PROTAC RIPK degrader-6] (10 µM)
0: all assays above

CC1=C(C(=O)Nc2ccc3[nH]ncc3c2)C(c2ccc(F)c(C(=O)NCc3ccccn3)c2)NC(=O)N1 (stereo not given) (10 µM)
0: all assays above

Nc1nc2c(ncn2COCCO)c(=O)[nH]1 [Acyclovir] (10 µM)
0: all assays above

C[C@@H](N)COc1ccc(-c2cnc3ccc(N[C@H](C)c4cccc(F)c4)nn23)cc1 [Taletrectinib] (2.5 µM)
0: all assays above

O=c1cc(N2CCOCC2)oc2c1ccc1ccccc12 (2 µM)
0: all assays above

CC(=O)Nc1nc(C)c(-c2ccc(Cl)c(S(=O)(=O)NCCO)c2)s1 (10 µM)
3: [1]
0: all other assays above

3 compounds from above, ordered by formula weight, largest number first:
O=c1cc(N2CCOCC2)oc2c1ccc1ccccc12 (2 µM)
0: all assays above

Nc1nc2c(ncn2COCCO)c(=O)[nH]1 [Acyclovir] (10 µM)
0: all assays above

Cc1cc(=O)[nH]c(=S)[nH]1 [Methylthiouracil] (10 µM)
0: all assays above

Remaining list, next part.

C=CC(=O)Nc1cccc(Nc2nc(Nc3ccc(Oc4ccnc(C(=O)NC)c4)cc3)ncc2F)c1 (2.5 µM)
0: all assays above

Cc1ncc(F)c(Nc2n[nH]c3c2CN(C(=O)N2C[C@@H](C)N(CC4CCOCC4)C[C@@H]2C)C3(C)C)n1 (10 µM)
0: all assays above

CC(C)c1cnn2c(NCc3ccccc3)cc(NCCCCCCN)nc12 [BS-181 (hydrochloride)] (10 µM)
0: all assays above

Cn1c(=O)c(Oc2ccc(F)cc2F)cc2cnc(NC(CCO)CCO)nc21 [Pamapimod] (10 µM)
0: all assays above

CC(C)=CCC/C(C)=C/CC/C(C)=C/CSc1ccccc1C(=O)O [Salirasib] (10 µM)
0: all assays above

COc1cc(-c2cc(-c3cccc(O)c3)cnc2N)cc(OC)c1OC (2.5 µM)
2: ERBB3 | [1]
1: FGFR2
0: all other assays above

OCCC#Cc1nc(-c2ccc(F)cc2)c(-c2ccncc2)n1CCCc1ccccc1 (2.5 µM)
0: all assays above

CC(C)n1cnnc1-c1cccc(NC(=O)c2cc3ccc(F)cc3[nH]2)n1 (2.5 µM)
4: EGFR_L861Q
0: EPHA2 | FGR
1: EGFR_T790M | ERN1
3: all other assays above

CS(=O)(=O)N1CCc2c(-c3cnc(N)nc3)nc(N3CCOCC3)nc21 (10 µM)
2: FGFR1
0: all other assays above

Cc1cc(Nc2ncc(Cl)c(Nc3ccccc3S(=O)(=O)C(C)C)n2)c(OC(C)C)cc1C1CCN(CC(=O)NCCNc2cccc3c2C(=O)N(C2CCC(=O)NC2=O)C3=O)CC1 (stereo not given) (10 µM)
0: all assays above

C=CC(=O)Nc1cccc(Oc2nc(Nc3ccc(N4CCN(C)CC4)cc3)nc3ccsc23)c1 [Olmutinib] (2.5 µM)
0: all assays above

C=CC(=O)Nc1cccc(Oc2nc(Nc3ccc(N4CCN(C)CC4)cc3)ncc2Cl)c1 (2.5 µM)
0: all assays above

CCCC[C@H](CO)Nc1nc(NC)ncc1OC [Interferon receptor inducer-1] (10 µM)
0: all assays above

CC[C@H](C)[C@H](NC(=O)[C@H](CCCCN)NC(=O)[C@H](CC(C)C)NC(=O)[C@@H]1CCCN1C(=O)[C@H](CCC(=O)O)NC(=O)[C@H](Cc1ccc(O)cc1)NC(=O)[C@@H](NC(=O)[C@H](CO)NC(=O)CNC(=O)[C@H](CO)NC(=O)[C@H](CCCN=C(N)N)NC(=O)[C@H](CCCCN)NC(=O)[C@@H](NC(=O)[C@@H](N)CCCN=C(N)N)[C@@H](C)O)C(C)C)C(=O)O [Malantide] (10 µM)
0: all assays above
